Measurements published in PubChem BioAssay AID1259415 (National Center for Advancing Translational Sciences (NCATS), 2018).
Several values for one entry are separate records, joined by “and”; a condition that tells them apart may be missing. Equal entries are not always repeated. About 18,000 (4.4%) of roughly 410,000 compounds were called active. The inconclusive results got no clear call from the source; some entries with a clear call stand among them for comparison. Cut-off read from the data, not from the text of the source: active = activity change below about -60%; inconclusive = no clear call, values can overlap the other calls; inactive = above about -39%.

Experiment: qHTS Assay for inhibitors of the human cytomegalovirus (HCMV)
Conditions: HFF cells, HCMV-luciferase reporter, 72 h; at 57.5 µM; hits give low values
Outline: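 Cell-based, HFFs, 1000 cells/well, 16 h 37C; cpds in DMSO + HCMV-luc, MOI 1 PFU/cell; 72 h 37C; OneGlo luminescence after 5 min RT; norm. to buffer vs Salinomycin 10uM.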
% is set by controls: 0 for no effect and ±100 for the full control effect.

Row | Compound | activity change, negative = inhibition
1 | C/C(=N\NC(=O)C(=O)Nc1cccc(Cl)c1C)c1ccncc1 | inconclusive: -44.3%
2 | O=C(CN1C(=O)NC2(CCCC2)C1=O)N1CCN(Cc2ccccc2)CC1 | inconclusive: -52.4%
3 | C(=N/N1CCN(c2ccccc2)CC1)/c1ccncc1 | inconclusive: -53.6%
4 | CC(C)CNc1ncnc2c1ncn2[C@H]1CN(Cc2ccc3c(c2)OCO3)C[C@@H](CO)O1 | active: -66.2%
5 | O=C(NCc1ccncc1)C(=O)NCC1OCCN1S(=O)(=O)c1ccc(Br)cc1 (stereo not drawn) | inconclusive: -58.1%
6 | COc1ccc(Cl)cc1NC(=O)CSc1nnc2[nH]c(=O)cc(-c3ccccc3)n12 | inactive: 8.64%
7 | Cc1ccc2[nH]c(=O)c3cc(C(=O)N(CCCOC(C)C)Cc4ccco4)sc3c2c1 | inconclusive: -52.4% and inconclusive: -53.9%
8 | COc1ccc(CC(=O)N2CCC(n3nccc3NC(=O)C3CCOC3)CC2)cc1 (stereo not drawn) | inconclusive: -44.9%
9 | COC(=O)c1ccc2c(=O)n3nc(Nc4cc(OC)ccc4OC)sc3nc2c1 | inconclusive: -43.3%
10 | O=C(Cc1ccc(Br)cc1)Nc1cccc(Cl)c1 | inconclusive: -53.5%
11 | COC(=O)[C@H](CC(C)C)NC(=O)Cn1cnc2c(OCc3ccccc3)ncnc21 | inactive: 35.3%
12 | CC(=NNc1nc2ccccc2s1)c1ncccn1 | active: -97.3%
13 | c1ccc(CCNc2nc(-c3ccccn3)cs2)cc1 | inactive: 5.85%
14 | Nc1ncnc2c1ncn2CCc1ccccc1 | inconclusive: -47.6%
15 | COc1cccc(CNC(=O)CSc2nc(=O)n(Cc3ccncc3)c3c2CCC3)c1 | inconclusive: -44.3%
16 | CC(=O)Nc1cccc(NC(=O)CSc2nccn2C2CCCC2)c1 | inconclusive: -46.4%
17 | O=C(NCc1ccc2c(c1)OCO2)c1n[nH]c(=O)c2ccccc12 | inconclusive: -45.2%
18 | CCCSc1nc2sc3c(c2c(=O)n1CC)CC(C)(C)OC3 | inconclusive: -42%
19 | COc1cc2[nH]c(=O)n(-c3cccc(Cl)c3)c(=O)c2cc1OC | inconclusive: -40.8%
20 | O=S(=O)(c1ccc(F)cc1)N1CCN(CC(O)COc2ccccc2F)CC1 (stereo not drawn) | inconclusive: -58.5%
21 | COc1ccc(CCNC(=O)CSC2=NS(=O)(=O)c3cc(Cl)ccc3N2)cc1OC | inactive: 6.85%

Arranged by molar mass (ascending): four of the compounds above.
Row | Compound | activity change, negative = inhibition
14 | Nc1ncnc2c1ncn2CCc1ccccc1 | inconclusive: -47.6%
19 | COc1cc2[nH]c(=O)n(-c3cccc(Cl)c3)c(=O)c2cc1OC | inconclusive: -40.8%
8 | COc1ccc(CC(=O)N2CCC(n3nccc3NC(=O)C3CCOC3)CC2)cc1 (stereo not drawn) | inconclusive: -44.9%
5 | O=C(NCc1ccncc1)C(=O)NCC1OCCN1S(=O)(=O)c1ccc(Br)cc1 (stereo not drawn) | inconclusive: -58.1%

Next compounds.

Row | Compound | activity change, negative = inhibition
22 | Cc1nnc(NC(=O)c2ccc(S(=O)(=O)N3CCCCC3)cc2)s1 | inactive: -29.4%
23 | CCC(c1nnnn1C1CCCC1)N(Cc1cccs1)Cc1cc2cc(C)ccc2[nH]c1=O (stereo not drawn) | inconclusive: -50.8%
24 | Cn1c(=O)c2c(nc(CN3CCc4ccccc4C3)n2Cc2ccc(F)cc2)n(C)c1=O | inconclusive: -43.6%
25 | CC(C)(C)N(Cc1cc2ccccc2[nH]c1=O)C(=O)c1cccc([N+](=O)[O-])c1 | inconclusive: -41%
26 | Cc1ccc(NC(=O)NC(C)c2c(-n3cccc3)sc(C)c2C)cc1F (stereo not drawn) | inconclusive: -49.1%
27 | CCCNC(=O)CCc1cc(C(C)(C)C)c(O)c(C(C)(C)C)c1 | inconclusive: -53.4%
28 | N#CCCN(C(=O)CSc1ccc2c(c1)OCCO2)c1ccc(F)cc1 | inactive: -3.92%
29 | COCCN(C(=S)Nc1ccccc1OC)C(C)c1cccs1 (stereo not drawn) | inconclusive: -41.9%
30 | CCN(C(=O)CSc1nc2ccccc2n1Cc1ccccc1C#N)c1ccccc1 | inactive: -4.98%
31 | COc1ccccc1N1CCN(Cc2cc(Br)c(O)c3ncccc23)CC1 | active: -95.4%
32 | Clc1ccc(CSc2nccn2Cc2ccccc2)cc1 | inconclusive: -42.4%
33 | Cc1ccc(Cl)cc1NC(=O)Nc1cn(CC(C)C)c(=O)c2ccccc12 | inactive: -12.1%
34 | CSc1ccc(/C=C2/C(=N)N3N=C(CC(=O)N4CCCC4)SC3=NC2=O)cc1 | inconclusive: -42.6%
35 | Cc1ccccc1CN1C(=O)c2ccccc2Sc2ccc(C(=O)NCc3ccccc3)cc21 | inconclusive: -48.9%
36 | COc1cccc(CNC(=O)c2ccc3c(c2)N(Cc2ccc(F)cc2Cl)C(=O)c2ccccc2S3)c1 | inconclusive: -48.1%
37 | COC(=O)c1ccc2c(=O)n(CCO)c(=S)[nH]c2c1 | inactive: -8.1%
38 | CCOC(=O)[C@H]1[C@H]2COc3ccc(C)cc3[C@@H]2N2C(=O)c3cc(Br)ccc3NC(=O)[C@@]12C | inactive: -8.02%
39 | Cc1noc(C)c1NC(=O)N(C)C[C@H]1Oc2ccc(NC(=O)Nc3ccc(C(F)(F)F)cc3)cc2C(=O)N([C@H](C)CO)C[C@@H]1C | inconclusive: -51%
40 | CN(C)C1=NP(N(C)C)(N(C)C)=NC(c2ccccc2)=N1 | inactive: 37.8%
41 | CCOC(=O)c1sc(NC(=O)CCN2CCCCCC2)c(C(=O)OCC)c1C | inconclusive: -53%
42 | Cc1ccc(CNC(=O)CN2C(=O)C3(OCCCO3)c3ccccc32)cc1 | inactive: -0.796%

Row | Compound | activity change, negative = inhibition
43 | C#CCOCCOCCOCCNc1nc(N2CCN(C(=O)CCCCCCCCCCNC(=O)[C@H](CO)n3cc(CCCSC)nn3)CC2)nc(N2CCN(C(=O)CCCCCCCCCCNC(=O)[C@H](CO)n3cc(CCCSC)nn3)CC2)n1 | active: -70.9%
44 | COc1cccc(C(=O)N2CCN(C(=O)C3CC3)CC2)c1 | inactive: 10.8%
45 | COC(=O)c1ccccc1NC(=O)c1oc2ccc3c(c2c1C)C(=O)CC(C)(C)O3 | inactive: -12.3%
46 | CCN(CC)S(=O)(=O)c1ccc(OC)c(NC(=O)c2cn(CC)c3nc(C)ccc3c2=O)c1 | inconclusive: -47.9%
47 | CCOC(=O)N1CCC(Nc2cc(C)nc3c(-c4ccccc4OC)c(C)nn23)CC1 | inconclusive: -51.9%
48 | COC(=O)c1sccc1NC(=O)c1ccc(C(C)C)cc1 | inactive: 182%
49 | Cc1cc(/C=N\NC(=O)CC(=O)NC2CCCCC2)c(C)n1-c1ccc(Cl)cc1 | inconclusive: -42.7%
50 | O=C(Cc1ccccc1)NC1CCN(Cc2ccccc2)CC1 | active: -62.4%
51 | COc1ccc(COC(=O)C2=C(C)NC(=O)NC2c2ccccc2)cc1 (stereo not drawn) | inactive: 2.97%
52 | CCOC(=O)Cn1c(=O)cc(C(F)(F)C(F)(F)F)c2c(C)nn(CC)c21 | inconclusive: -40.6%
53 | CCOC(=O)c1sc(NC(=O)CC)nc1C | inconclusive: -42.2%
54 | O=C(Nc1cccc(C(F)(F)F)c1)N1CCC(c2nc(-c3ccc(F)cc3)no2)CC1 | inconclusive: -50.7%
55 | O=S(=O)(c1cccc2nonc12)N1CCCCCC1 | inconclusive: -53.8%
56 | Cc1cc(C)c(NC(=O)c2cn3c4c(c(N5CCN(C)CC5)c(F)cc4c2=O)OCC3C)c(C)c1 (stereo not drawn) | inconclusive: -51.1%
57 | Cc1ccc(N(C)S(=O)(=O)c2cccc(C(=O)Nc3ccc(N4CCOCC4)cc3)c2)cc1 | inconclusive: -49.8%
58 | CCOC(=O)c1sc2nccc(N(C)C)c2c1N=CNOC | inconclusive: -58.3%
59 | COc1ccc2[nH]c(=O)c(CN(C(C)=O)C3CCCCC3)cc2c1 | inconclusive: -47.2%
60 | O=C(NC1CCCC1)c1ccc2c(=O)n(Cc3ccccc3)c(SCc3cccc([N+](=O)[O-])c3)nc2c1 | inconclusive: -46.4%
61 | COc1ccccc1OCc1ccc(C(=O)Nc2ccc(Cl)cn2)o1 | inconclusive: -50.3%
62 | O=C(NCC1CCN(c2ccc(S(=O)(=O)N3CCOCC3)cc2)CC1)c1ccc(Cl)cc1 | inconclusive: -48.2%
63 | COc1ccc(NC(=O)c2sc3nc4c(cc3c2N)CCCCCC4)cc1 | inconclusive: -55.4%

Some of the entries above in another layout:

| Row | Compound | activity change, negative = inhibition |
| --- | --- | --- |
| 46 | CCN(CC)S(=O)(=O)c1ccc(OC)c(NC(=O)c2cn(CC)c3nc(C)ccc3c2=O)c1 | inconclusive: -47.9% |
| 47 | CCOC(=O)N1CCC(Nc2cc(C)nc3c(-c4ccccc4OC)c(C)nn23)CC1 | inconclusive: -51.9% |

(cont.)

Row | Compound | activity change, negative = inhibition
64 | COc1ccc(C(=O)OCC(=O)NCCN2C(=O)CSC2=O)cc1 | inconclusive: -40.7%
65 | CCCc1cc(N2CCN(c3cccc(C)c3C)CC2)n2cnnc2n1 | inconclusive: -54.9%
66 | CCn1nc(C)c(/C=N/NC(=S)Nc2ccc(Cl)cc2Cl)c1C | active: -103%
67 | O=C(c1ccc(C(F)(F)F)cc1)C1CCCN(Cc2ccncc2)C1 (stereo not drawn) | inconclusive: -50.9%
68 | CN(CC(=O)NC1CCN(Cc2ccccc2)CC1)S(=O)(=O)c1ccc(Br)s1 | inconclusive: -47.4%
69 | Cn1c(NCc2ccccc2)nc2cnc(Nc3ccccc3Cl)cc21 | inactive: -8.61%
70 | COc1ccc(F)cc1CN1CCN(c2ncnc3scc(-c4ccccc4)c23)CC1 | active: -75.4%
71 | CCOc1cc(S(=O)(=O)NC2CCCCCC2)ccc1F | inactive: -7.68%
72 | Cc1ccc(C(=O)NC(=S)NNS(=O)(=O)c2ccccc2)cc1 | inconclusive: -43.6%
73 | OCC1(Cc2ccccc2)CCN(Cc2cccc(F)c2F)CC1 | inactive: 0%
74 | COc1ccc(C2CC(c3ccc(Br)cc3)=NN2C(=S)Nc2ccccc2)cc1 (stereo not drawn) | inactive: -34.9%
75 | CCc1ccccc1NC(=O)CN(C)S(=O)(=O)c1ccc(-c2ccc(=O)[nH]n2)s1 | inactive: -29.5%
76 | Cc1ccc(-n2c(=O)c3sccc3n(Cc3cc(=O)n4cc(Cl)ccc4n3)c2=O)cc1F | inconclusive: -48.6%
77 | Oc1c(C(c2ccccc2F)N2CCN(c3ccccc3F)CC2)sc2nc(-c3ccco3)nn12 (stereo not drawn) | inactive: -8.19%
78 | Cc1ccc(-c2nc(SCC(=O)NCC3CCCO3)c3c(=O)n(C)c(=O)n(C)c3n2)cc1 (stereo not drawn) | inactive: -14.2%
79 | C[C@]12CCC[C@H](O1)c1c(cc3c(c1O)C(=O)c1c(O)cc(O)cc1C3=O)O2 | inactive: -14.7%
80 | CCn1c(=O)cc(C(=O)OC)sc1=Nc1ccc(F)c(F)c1 | inactive: 146%
81 | Cc1cc(C)c(C#N)c(OCC(=O)c2ccc(Br)cc2)n1 | inactive: 80.9%
82 | CSc1cccc(NC(=O)C2CCCN(C(=O)c3cnn(-c4ccc(F)cc4)c3-n3cccc3)C2)c1 (stereo not drawn) | inconclusive: -42.1%
83 | CCCN(CCC)CCCNC(=O)C1CCN(c2nc3ccc(CC)cc3s2)CC1 | active: -101%
